Experimental findings from article doi:10.1101/2024.07.09.602822 are described below.

Protein sequences, listed by entry. Tags and fused reporters are not part of them.
UniProt P67936: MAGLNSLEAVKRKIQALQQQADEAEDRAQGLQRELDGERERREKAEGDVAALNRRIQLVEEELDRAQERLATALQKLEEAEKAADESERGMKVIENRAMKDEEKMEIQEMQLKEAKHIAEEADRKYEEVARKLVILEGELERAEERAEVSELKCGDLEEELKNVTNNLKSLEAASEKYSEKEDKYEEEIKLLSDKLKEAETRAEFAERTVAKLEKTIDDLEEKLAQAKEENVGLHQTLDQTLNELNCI
UniProt P14618: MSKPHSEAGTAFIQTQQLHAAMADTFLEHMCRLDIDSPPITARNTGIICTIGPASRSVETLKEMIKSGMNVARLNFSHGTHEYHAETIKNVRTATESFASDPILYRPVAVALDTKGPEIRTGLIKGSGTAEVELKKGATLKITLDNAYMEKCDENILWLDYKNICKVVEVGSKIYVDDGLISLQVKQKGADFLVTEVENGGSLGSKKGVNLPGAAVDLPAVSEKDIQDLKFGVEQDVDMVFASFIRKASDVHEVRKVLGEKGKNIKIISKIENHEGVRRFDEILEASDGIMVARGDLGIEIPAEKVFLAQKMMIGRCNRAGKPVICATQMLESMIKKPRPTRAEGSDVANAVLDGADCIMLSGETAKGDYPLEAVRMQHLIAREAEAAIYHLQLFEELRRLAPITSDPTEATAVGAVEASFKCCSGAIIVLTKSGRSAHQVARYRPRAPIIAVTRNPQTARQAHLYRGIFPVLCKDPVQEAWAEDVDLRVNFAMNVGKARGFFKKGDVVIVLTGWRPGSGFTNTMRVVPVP

One experiment has as its target TPM4-GB (UniProt P67936). As to the kind of experiment: fluorescent protein exchange.
The target of experiment [1] is TPM4-AcGFP (Tropomyosin 4 fused to AcGFP) (UniProt P67936). Description: proximity ligation.
Another experiment concerns the target TPM4-GFP 1-10 (UniProt P67936). As to the kind of experiment: split reporter.

No constants are given. Whether binding was seen depends on the method and setting. For some of these results: In cells and extracts the contact can be indirect. Some entries that bind do so weakly or less than the wild type. For some of these results: Where a sequence is shown, tags or fusion partners need not be part of it.

For “PKM2-RA (from UniProt P14618 1-531) (enzyme)”, the binding entry with TPM4-GB is listed as “binds”.

B1: PFKM (Phosphofructokinase muscle type) (enzyme, UniProt P08237 1-780)
chain: MTHEEHHAAKTLGIGKAIAVLTSGGDAQGMNAAVRAVVRVGIFTGARVFFVHEGYQGLVDGGDHIKEATWESVSMMLQLGGTVIGSARCKDFREREGRLRAAYNLVKRGITNLCVIGGDGSLTGADTFRSEWSDLLSDLQKAGKITDEEATKSSYLNIVGLVGSIDNDFCGTDMTIGTDSALHRIMEIVDAITTTAQSHQRTFVLEVMGRHCGYLALVTSLSCGADWVFIPECPPDDDWEEHLCRRLSETRTRGSRLNIIIVAEGAIDKNGKPITSEDIKNLVVKRLGYDTRVTVLGHVQRGGTPSAFDRILGSRMGVEAVMALLEGTPDTPACVVSLSGNQAVRLPLMECVQVTKDVTKAMDEKKFDEALKLRGRSFMNNWEVYKLLAHVRPPVSKSGSHTVAVMNVGAPAAGMNAAVRSTVRIGLIQGNRVLVVHDGFEGLAKGQIEEAGWSYVGGWTGQGGSKLGTKRTLPKKSFEQISANITKFNIQGLVIIGGFEAYTGGLELMEGRKQFDELCIPFVVIPATVSNNVPGSDFSVGADTALNTICTTCDRIKQSAAGTKRRVFIIETMGGYCGYLATMAGLAAGADAAYIFEEPFTIRDLQANVEHLVQKMKTTVKRGLVLRNEKCNENYTTDFIFNLYSEEGKGIFDSRKNVLGHMQQGGSPTPFDRNFATKMGAKAMNWMSGKIKESYRNGRIFANTPDSGCVLGMRKRALVFQPVAELKDQTDFEHRIPKEQWWLKLRPILKILAKYEIDLDTSDHAHLEHITRKRSGEAAV
Consider B1, for which the binding entry in experiment [1] is listed as “binds”.

B2: PFKM-GA (enzyme, UniProt P08237 1-780)
chain: MTHEEHHAAKTLGIGKAIAVLTSGGDAQGMNAAVRAVVRVGIFTGARVFFVHEGYQGLVDGGDHIKEATWESVSMMLQLGGTVIGSARCKDFREREGRLRAAYNLVKRGITNLCVIGGDGSLTGADTFRSEWSDLLSDLQKAGKITDEEATKSSYLNIVGLVGSIDNDFCGTDMTIGTDSALHRIMEIVDAITTTAQSHQRTFVLEVMGRHCGYLALVTSLSCGADWVFIPECPPDDDWEEHLCRRLSETRTRGSRLNIIIVAEGAIDKNGKPITSEDIKNLVVKRLGYDTRVTVLGHVQRGGTPSAFDRILGSRMGVEAVMALLEGTPDTPACVVSLSGNQAVRLPLMECVQVTKDVTKAMDEKKFDEALKLRGRSFMNNWEVYKLLAHVRPPVSKSGSHTVAVMNVGAPAAGMNAAVRSTVRIGLIQGNRVLVVHDGFEGLAKGQIEEAGWSYVGGWTGQGGSKLGTKRTLPKKSFEQISANITKFNIQGLVIIGGFEAYTGGLELMEGRKQFDELCIPFVVIPATVSNNVPGSDFSVGADTALNTICTTCDRIKQSAAGTKRRVFIIETMGGYCGYLATMAGLAAGADAAYIFEEPFTIRDLQANVEHLVQKMKTTVKRGLVLRNEKCNENYTTDFIFNLYSEEGKGIFDSRKNVLGHMQQGGSPTPFDRNFATKMGAKAMNWMSGKIKESYRNGRIFANTPDSGCVLGMRKRALVFQPVAELKDQTDFEHRIPKEQWWLKLRPILKILAKYEIDLDTSDHAHLEHITRKRSGEAAV
In the case of B2, the binding result with TPM4-GB is recorded as “binds”.

B3: PFKM-GFP 11 (enzyme, UniProt P08237 1-780)
chain: MTHEEHHAAKTLGIGKAIAVLTSGGDAQGMNAAVRAVVRVGIFTGARVFFVHEGYQGLVDGGDHIKEATWESVSMMLQLGGTVIGSARCKDFREREGRLRAAYNLVKRGITNLCVIGGDGSLTGADTFRSEWSDLLSDLQKAGKITDEEATKSSYLNIVGLVGSIDNDFCGTDMTIGTDSALHRIMEIVDAITTTAQSHQRTFVLEVMGRHCGYLALVTSLSCGADWVFIPECPPDDDWEEHLCRRLSETRTRGSRLNIIIVAEGAIDKNGKPITSEDIKNLVVKRLGYDTRVTVLGHVQRGGTPSAFDRILGSRMGVEAVMALLEGTPDTPACVVSLSGNQAVRLPLMECVQVTKDVTKAMDEKKFDEALKLRGRSFMNNWEVYKLLAHVRPPVSKSGSHTVAVMNVGAPAAGMNAAVRSTVRIGLIQGNRVLVVHDGFEGLAKGQIEEAGWSYVGGWTGQGGSKLGTKRTLPKKSFEQISANITKFNIQGLVIIGGFEAYTGGLELMEGRKQFDELCIPFVVIPATVSNNVPGSDFSVGADTALNTICTTCDRIKQSAAGTKRRVFIIETMGGYCGYLATMAGLAAGADAAYIFEEPFTIRDLQANVEHLVQKMKTTVKRGLVLRNEKCNENYTTDFIFNLYSEEGKGIFDSRKNVLGHMQQGGSPTPFDRNFATKMGAKAMNWMSGKIKESYRNGRIFANTPDSGCVLGMRKRALVFQPVAELKDQTDFEHRIPKEQWWLKLRPILKILAKYEIDLDTSDHAHLEHITRKRSGEAAV
As for B3, the binding entry in the experiment with TPM4-GFP 1-10 is “binds”.
